# At least one structure is not confirmed: it was looked up by name or label, or the drawing left a doubt.
# Assays:
# [1] = test system: caspase-9 and caspase-3; test: Caspase-9 and caspase-3 protein expression in P5 cells (immunofluorescence, Western blot); format: cell-based, human
# Description: P5 cells either untreated (CO) or stimulated with cisplatin (CIS, 2 µg/ml) were incubated in the absence or presence of DEX (1 µM). • (a) 6 and 24 h later RNA was extracted and assayed by RT-PCR for expression of caspase-9. Expression of the GAPDH gene served as control for equal conditions. • (b) 24 h after stimulation expression of caspase-9 proteins was examined by immunofluorescence staining using a rabbit polyclonal caspase-9 antibody and a FITC-coupled secondary antibody. Staining with the secondary antibody alone served as control for unspecific binding. • (c) 48 and 72 h after treatment whole cell proteins were extracted and analysed for expression of caspase-9 and caspase-3. The protein sizes in kDa are indicated on the right. Expression of the α-actin protein served as control for equal conditions. The results depicted here have been performed three times with similar outcome.
# • (A) Cell culture. […] The mice were given 0.28 mg/L DEX in drinking water, and the amount of water consumed was monitored. […] The tumour volumes were measured using callipers, and calculated using, as an approximation, the formula for volume of a hemi-ellipsoid: π(width^2 x length)/6. […] Early apoptotic changes were identified by staining of cells with fluoresceinthiocyanate (FITC)-conjugated annexin V and propidium iodide (Becton Dickinson, Heidelberg, Germany) and analysed by flow cytometry (FACScan, Becton Dickinson) as described (Herr et al., EMBO J. 16 (1997), 6200-6208) • (E) Immunohistochemistry. […] Expression of caspase-9 was detected by a rabbit polyclonal antibody (Santa Cruz, Lexington, USA) and cleavage of cytokeratin was examined by mAB M30 (Roche, Mannheim, Germany). Bound antibodies were detected by FITC conjugated anti-mouse or anti-rabbit IgG (Molecular Probes Europe, Leiden, The Netherlands). Cells were mounted in KAISER's glycerol gelatine (MERCK, Darmstadt, Germany), and examined by fluorescence microscopy. […]
# [2] = test system: cytochrome c; test: Cytochrome c release assay (Western blot of mitochondrial fractions); format: cell-based, human; settings: P5 cells, DEX alone or in combination with cisplatin, 6 and 24 h; Fig. 3b
compound,measurement,setting,value
"C[C@@H]1C[C@H]2[C@@H]3CCC4=CC(=O)C=C[C@]4(C)[C@@]3(F)[C@@H](O)C[C@]2(C)[C@@]1(O)C(=O)CO [DEX, dexamethasone]",protein levels of procaspase-9,"[1]; Western blot at 48 and 72 h, Fig. 4c",reduced the protein levels of procaspase-9
same,procaspase-3 cleavage,"[1]; cisplatin in the presence of DEX, Fig. 4c",remains in its proform
same,caspase-9 expression at the protein level,"[1]; immunohistochemistry 24 h and Western blot 48 and 72 h, Fig. 4b, 4c",Downregulation of caspase-9 expression
same,efflux of cytochrome c from mitochondria,[2],"induced efflux of cytochrome c from mitochondria, which was first detectable at 6 h and completed at 24 h"
